Results are given in words; binding and its absence hold for the method and conditions named. Binding seen in cells or lysates may run through a third protein. A yes stands for co-enrichment or nearness to the bait. Other partners may have been found.
B1: MARCKS (includes EG:4082) (protein, UniProt P30009 1-309)
chain: MGAQFSKTAAKGEAAAERPGEAAVASSPSKANGQENGHVKVNGDASPAAAEPGAKEELQANGSAPAADKEEPASGGAATPAAADKDEAAAAPEPGAATADKEAAEAEPAEPGSPSAETEGASASSTSSPKAEDGAAPSPSSETPKKKKKRFSFKKSFKLSGFSFKKSKKEAGEGAEAEGATADGAKDEAAAAAGGDAAAAPGEQAGGAGAEGAEGGESREAEAAEPEQPEQPEQPAAEEPRAEEPSEAVGEKAEEPAPGATADDAPSAAGPEQEAPAATDEPAASAAPSASPEPQPECSPEAPPAPVAE
B2: FGA (protein, UniProt P06399 20-782)
chain: ADTGTTSEFIEAGGDIRGPRIVERQPSQCKETDWPFCSDEDWNHKCPSGCRMKGLIDEANQDFTNRINKLKNSLFDFQKNNKDSNSLTRNIMEYLRGDFANANNFDNTFGQVSEDLRRRIQILKRKVIEKAQQIQVLQKDVRDQLIDMKRLEVDIDIKIRSCKGSCSRSVSREINLKDYEGQQKQLEQVIAKDLLPAKDRQYLPAIKMSPVPDLVPGSFKSQLQEGPPEWKALTEMRQMRMELERPGKDGASRGDLPGDSRGDSATRGPGSKIENPMTPGHGGSGYWRPGSSGSGSDGNWGSGTTGSDDTGTWGAGSSRPSSGSGNLKPSNPDWGEFSEFGGSSSPATRKEYHTGKLVTSKGDKELLIGNEKVTSTGTSTTRRSCSKTITKTVLGNDGHREVVKEVVTSDDGSDCGDGMDLGLTHSFSGRLDELSRMHPELGSFYDSRFGSLTSNFKEFGSKTSDSDIFTDIENPSSHVPEFSSSSKTSTVRKQVTKSYKMADEAASEAHQEGDTRTTKRGRARTMRDCDDVLQTHPSGAQNGIFSIKLPGSSKIFSVYCDQETSLGGWLLIQQRMDGSLNFNRTWQDYKRGFGSLNDKGEGEFWLGNDYLHLLTLRGSVLRVELEDWAGKEAYAEYHFRVGSEAEGYALQVSSYQGTAGDALMEGSVEEGTEYTSHSNMQFSTFDRDADQWEENCAEVYGGGWWYNSCQAANLNGIYYPGGTYDPRNNSPYEIENGVLWVPFRGADYSLWAVRMKIRPLVGQ
B3: YWHAG (protein, UniProt P61983 1-247)
chain: MVDREQLVQKARLAEQAERYDDMAAAMKNVTELNEPLSNEERNLLSVAYKNVVGARRSSWRVISSIEQKTSADGNEKKIEMVRAYREKIEKELEAVCQDVLSLLDNYLIKNCSETQYESKVFYLKMKGDYYRYLAEVATGEKRATVVESSEKAYSEAHEISKEHMQPTHPIRLGLALNYSVFYYEIQNAPEQACHLAKTAFDDAIAELDTLNEDSYKDSTLIMQLLRDNLTLWTSDQQDDDGGEGNN
B4: DLD (protein, UniProt Q6P6R2 36-509)
chain: SDQPIDADVTVIGSGPGGYVAAIKAAQLGFKTVCIEKNETLGGTCLNVGCIPSKALLNNSHYYHLAHGKDFASRGIEIPEVRLNLEKMMEQKRSAVKALTGGIAHLFKQNKVVHVNGFGKITGKNQVTATTADGSTQVIGTKNILIATGSEVTPFPGITIDEDTIVSSTGALSLKKVPEKLVVIGAGVIGVELGSVWQRLGADVTAVEFLGHVGGIGIDMEISKNFQRILQKQGFKFKLNTKVTGATKKSDGKIDVSVEAASGGKAEVITCDVLLVCIGRRPFTQNLGLEELGIELDPKGRIPVNTRFQTKIPNIFAIGDVVAGPMLAHKAEDEGIICVEGMAGGAVHIDYNCVPSVIYTHPEVAWVGKSEEQLKEEGVEFKVGKFPFAANSRAKTNADTDGMVKILGHKSTDRILGAHILGPGAGEMVNEAALALEYGASCEDVARVCHAHPTLSEAFREANLAASFGKPINF
B5: LONP1 (protein, UniProt Q924S5 66-950)
chain: LWDAGSRGGSDETSEGGVEDGATASSGEGPVVTALAPMTVPDVFPHLPLIAISRNPVFPRFIKIVEVKNKKLVELLRRKVRLAQPYVGVFLKRDDNNESDVVESLDEIYHTGTFAQIHEMQDLGDKLRMIVTGHRRIHISRQLEVEPEGLEPEAENKQKSRRKLKRGKKEVGDELGAKPQLEMVTEATSDTSKEVLMVEVENVAHEDFQVTEEVKALTAEIVKTIRDIIALNPLYRESVLQMMQAGQRVVDNPIYLSDMGAALTGAESHELQDVLEETNILKRLYKALSLLKKEFELSKLQQRLGREVEEKIKQTHRKYLLQEQLKIIKKELGLEKDDKDAIEEKFRERLKELVVPKHVMDVVDEELSKLALLDNHSSEFNVTRNYLDWLTSIPWGRQSDENLDLARAQSVLEEDHYGMEDVKKRVLEFIAVSQLRGSTQGKILCFHGPPGVGKTSIARSIARALGREYFRFSVGGMTDVAEIKGHRRTYVGAMPGKIIQCLKKTKTENPLVLIDEVDKIGRGYQGDPSSALLELLDPEQNANFLDHYLDVPVDLSKVLFICTANVTDTIPEPLRDRMEMINVSGYVAQEKLAIAERYLVPQARTLCGLDESKAQLSATVLTLLIKQYCRESGVRNLQKQVEKVLRKAAYKIVSGEAQTVHVTPENLQDFVGKPVFTVERMYDVTPPGVVMGLAWTAMGGSTLFVETSLRRPQPSGSKEDKDGSLEVTGQLGDVMKESARIAYTFARAFLMEQDPENDFLVTSHIHLHVPEGATPKDGPSAGCTIVTALLSLALGQPVLQNLAMTGEVSLTGKVLPVGGIKEKTIAAKRAGVTCIILPAENRKDFSDLAPFITEGLEVHFVEHYRDIFRIAFPLREHQEALAVER
B6: MSRA (protein, UniProt Q923M1 21-233)
chain: MGDSSSKVISAEEALPGRTESIPVAAKHHVSGNRTVEPFPEGTQMAVFGMGCFWGAERKFWLLKGVYSTQVGFAGGYTRNPTYKEVCSEKTGHAEVVRVVYRPEHVSFEELLKVFWENHDPTQGMRQGNDCGTQYRSAVYPTSAVQMEAALKSKEEYQKVLSKHGFGPITTDIREGQVFYYAEDYHQQYLSKNPDGYCGLGGTGVSCPTAIKK
B7: PRDX5 (protein, UniProt Q9R063 52-213)
chain: MAPIKVGDTIPSVEVFEGEPGKKVNLAELFKDKKGVLFGVPGAFTPGCSKTHLPGFVEQAGALKAKGAQVVACLSVNDAFVTAEWGRAHQAEGKVQLLADPTGAFGKETDLLLDDSLVSLFGNRRLKRFSMVIDKGVVKALNVEPDGTGLTCSLAPNILSQL
B8: ECHS1 (protein, UniProt P14604 30-290)
chain: GANFQYIITEKKGKNSSVGLIQLNRPKALNALCNGLIEELNQALETFEEDPAVGAIVLTGGEKAFAAGADIKEMQNRTFQDCYSGKFLSHWDHITRIKKPVIAAVNGYALGGGCELAMMCDIIYAGEKAQFGQPEILLGTIPGAGGTQRLTRAVGKSLAMEMVLTGDRISAQDAKQAGLVSKIFPVETLVEEAIQCAEKIANNSKIIVAMAKESVNAAFEMTLTEGNKLEKKLFYSTFATDDRREGMSAFVEKRKANFKDH
B9: ECI1 (protein, UniProt P23965 29-289)
chain: FSNKRVLVEKEGEAGIAVMKFKNPPVNSLSLEFLTEFVISLEKLENDKSIRGVILTSERPGIFSAGLDLMEMYGRNPAHYAEYWKAVQELWLRLYLSNLTLISAINGASPAGGCLMALTCDYRIMADNSKYTIGLNESLLGIVAPFWLKDNYVNTIGHRAAERALQLGTLFPPAEALKVGLVDEVVPEDQVHSKARSVMAKWFTIPDHSRQLTKSMMRKATADNLIKQREADIQNFTSFISRDSIQKSLHVYLEKLKQKKG
B10: MLYCD (protein, UniProt Q920F5 39-492)
chain: MDELLRRAVPPTPAYELREKTPAPAEGQCADFVSFYGGLAEAAQRAELLGRLAQGFGVDHGQVAEQSAGVLQLRQQSREAAVLLQAEDRLRYALVPRYRGLFHHISKLDGGVRFLVQLRADLLEAQALKLVEGPHVREMNGVLKSMLSEWFSSGFLNLERVTWHSPCEVLQKISECEAVHPVKNWMDMKRRVGPYRRCYFFSHCSTPGDPLVVLHVALTGDISNNIQSIVKECPPSETEEKNRIAAAVFYSISLTQQGLQGVELGTFLIKRVVKELQKEFPHLGAFSSLSPIPGFTKWLLGLLNVQGKEYGRNELFTDSECKEIAEVTGDPVHESLKGLLSSGEWAKSEKLAQALQGPLMRLCAWYLYGEKHRGYALNPVANFHLQNGAVMWRINWMADSSLKGLTSSCGLMVNYRYYLEETGPNSISYLGSKNIKASEQILSLVAQFQSNSKL

Target: β2-adrenergic receptor (UniProt P07550)
Test: affinity purification with mass spectrometry; purified Flag-β2AR in rHDL immobilised on M1 anti-Flag resin, occupied by 50 µM BI-167107 (full agonist) or 50 µM carazolol (inverse agonist); adult rat heart cytosol (10 mg/ml, 4 mM CaCl2) overnight at 4°C; eluted with FLAG peptide and EDTA; gel slices, LC-MS; proteins of the M1 resin, empty rHDL and Ni-NTA controls subtracted; hits of either or both samples; only the target purified

Binder	binding
B1	binds
B2	binds
B3	binds
B4	binds
B5	binds
B6	binds
B7	binds
B8	binds
B9	binds
B10	binds

From publication PMC3556083
